# Article PMC8007109
# These are yes or no findings as the source states them, for the method shown.
# T1: NUBP1 construct restricted to residues 38-320 (human) (UniProt P53384)
# T1 sequence: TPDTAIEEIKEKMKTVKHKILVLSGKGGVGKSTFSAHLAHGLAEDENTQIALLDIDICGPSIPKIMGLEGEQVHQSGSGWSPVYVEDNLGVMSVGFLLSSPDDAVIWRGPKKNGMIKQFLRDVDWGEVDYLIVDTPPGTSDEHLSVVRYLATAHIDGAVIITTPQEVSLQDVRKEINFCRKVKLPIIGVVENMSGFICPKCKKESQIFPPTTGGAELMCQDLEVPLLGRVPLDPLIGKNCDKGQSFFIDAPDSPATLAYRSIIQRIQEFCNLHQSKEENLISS
# B1: NUBP1-C235A/C238A mutant (protein, UniProt P53384 1-320)
# chain: MEEVPHDCPGADSAQAGRGASCQGCPNQRLCASGAGATPDTAIEEIKEKMKTVKHKILVLSGKGGVGKSTFSAHLAHGLAEDENTQIALLDIDICGPSIPKIMGLEGEQVHQSGSGWSPVYVEDNLGVMSVGFLLSSPDDAVIWRGPKKNGMIKQFLRDVDWGEVDYLIVDTPPGTSDEHLSVVRYLATAHIDGAVIITTPQEVSLQDVRKEINFCRKVKLPIIGVVENMSGFIAPKAKKESQIFPPTTGGAELMCQDLEVPLLGRVPLDPLIGKNCDKGQSFFIDAPDSPATLAYRSIIQRIQEFCNLHQSKEENLISS
# B2: [2Fe–2S]2-GLRX3_(2)-GS4 (dimeric cluster-bridged human glutaredoxin-3) (protein, UniProt O76003 1-335)
# chain: MAAGAAEAAVAAVEEVGSAGQFEELLRLKAKSLLVVHFWAPWAPQCAQMNEVMAELAKELPQVSFVKLEAEGVPEVSEKYEISSVPTFLFFKNSQKIDRLDGAHAPELTKKVQRHASSGSFLPSANEHLKEDLNLRLKKLTHAAPCMLFMKGTPQEPRCGFSKQMVEILHKHNIQFSSFDIFSDEEVRQGLKAYSSWPTYPQLYVSGELIGGLDIIKELEASEELDTICPKAPKLEERLKVLTNKASVMLFMKGNKQEAKCGFSKQILEILNSTGVEYETFDILEDEEVRQGLKAYSNWPTYPQLYVKGELVGGLDIVKELKENGELLPILRGEN
# What was measured:
# [1] = molecular target: NUBP1-C235A/C238A mutant (human) (UniProt P53384); assay: SEC; analytical gel filtration, Superdex 200 10/300 Increase; purified proteins after overnight incubation at room temperature with 100 mM pyridine-2,6-dicarboxylic acid (PDC, metal chelator), 25 mM MOPS pH 7.0; both purified
# [2] = molecular target: NUBP1-C235A/C238A mutant (human) (UniProt P53384); assay: SEC; analytical gel filtration, Superdex 200 10/300 Increase; monomeric apo proteins chemically reconstituted anaerobically with up to 12-fold excess of FeCl3 and Na2S, 5 mM DTT; both purified
# [3] = molecular target: NUBP1-C235A/C238A mutant (human) (UniProt P53384); assay: SEC; analytical gel filtration, Superdex 200 10/300 Increase; proteins as purified (anaerobically, wtNUBP1 also aerobically); degassed 50 mM phosphate pH 7.0, 200 mM NaCl, 5 mM DTT; both purified
# [4] = molecular target: T1, NUBP1 construct restricted to residues 38-320 (human); assay: pull-down; His6-tagged NUBP1 species and untagged [2Fe-2S]2-GLRX3_(2)-GS4 incubated 1 h at room temperature, anaerobic, 5 mM GSH, 40 mM sodium phosphate pH 8.0, 400 mM NaCl, 5 mM imidazole; loaded on His GraviTrap, eluted with 400 mM imidazole; fractions checked by SDS-PAGE; both purified
Binder,binding [1],binding [2],binding [3],binding [4]
B1,no binding,no binding,no binding,
B2,,,,no binding
